# According to PubChem BioAssay AID540256 (National Center for Advancing Translational Sciences (NCATS), 2011):
# Hit rate of the full screen: of about 300,000 compounds, about 3,700 (1.2%) were called active. Inconclusive results, whose numbers are uncertain, are shown with a selection of clear calls. The call rests on the fitted dose curve; tested in HEK293 cells. Potencies of inconclusive entries are doubtful fits and often do not repeat.
# Test: qHTS for Inhibitors of binding or entry into cells for Lassa Virus; further: nearly all actives have a fitted effect of over 50% in size
# Settings: Lassa virus pseudotype entry inhibition, cell reporter; series mostly up to 37.9 µM
# Potency means the concentration at half of the fitted maximal effect.
row,SMILES,Potency
1,Cc1cc(Nc2cccc(C(F)(F)F)c2)n2nc(C)nc2n1,inactive
2,CCCN1/C(=C2/SC(=S)N(CC)C2=O)C=Cc2ccccc21,inactive
3,C[N+]1(C)CCC(OC(=O)C(c2ccccc2)c2ccccc2)CC1,"inconclusive: 0.0046 µM [activator, full curve, poor fit]"
4,CC(OC(=O)C1CCCCC1)c1nc2ccccc2[nH]1 (stereo not drawn),inactive
5,CC1=C(C(=O)OCc2ccc3c(c2)OCO3)C(c2ccc(Cl)cc2)NC(=O)N1 (stereo not drawn),"inconclusive: 2.59 µM [inhibitor, partial curve]"
6,CC(C(=O)c1ccccc1)n1c(N2CCOCC2)nc2c1c(=O)n(C)c(=O)n2C (stereo not drawn),inactive
7,CSc1nc(N)n2nc(C(C)(C)C)cc2n1,inactive
8,Cc1cccc(/C(N)=N/OC(=O)c2ccccc2Cl)c1,"inconclusive: 35.5 µM [inhibitor, single point]"
9,Cc1ccc(C2=NN(CC(=O)NCCCN(CC(C)C)CC(C)C)C(=O)CC2)cc1,inactive
10,O=C(NC1CCCCCC1)C1CCN(C(=O)N2CCOc3ccc(Cl)cc32)CC1,"inconclusive: 1.12 µM [inhibitor, full curve, poor fit]"
11,N=c1oc2cc(O)ccc2cc1C(=O)Nc1ccc(Cl)cc1,inactive
12,O=C(c1ccccc1)c1ccc(OCCOCCN2CCN(Cc3ccccc3)CC2)cc1,inactive
13,Cc1ccc(NC(=O)c2noc(C(C)C)c2[N+](=O)[O-])cc1,inactive
14,COc1ccc(C(=O)NCC2(N3CCCCC3)CCCCC2)cc1S(=O)(=O)N(C)C,"inconclusive: 22.4 µM [activator, single point]"
15,CCC(=O)N1c2ccc(S(=O)(=O)NCCc3ccc(C)cc3)cc2CC1C (stereo not drawn),"inconclusive: 35.5 µM [inhibitor, single point]"
16,O=C(CN1CCCc2ccccc21)N/N=C/c1ccc(O)cc1O,"inconclusive: 35.5 µM [inhibitor, single point]"
17,CC(=O)N1CCN(c2nnc(-c3ccc(C)cc3)c3ccccc23)CC1,"inconclusive: 0.631 µM [inhibitor, full curve, poor fit]"
18,Nc1nonc1-n1nnc(C(=O)N/N=C/c2ccccc2Cl)c1-c1ccccc1,inactive
19,CC(=O)N1CCOc2cc(S(=O)(=O)NCc3ccccc3Cl)c(C)cc21,"inconclusive: 2.82 µM [inhibitor, partial curve, poor fit]"
20,c1ccc(CSc2nnc(NC3=NCCCCC3)s2)cc1,inactive
21,O=C(NNC1=C(C(=O)C(F)(F)F)CCC1)c1ccc(Br)cc1,"inconclusive: 0.184 µM [inhibitor, full curve, poor fit]"
22,CC(On1nnc2ccccc21)C(=O)N1CCN(Cc2ccccc2)CC1 (stereo not drawn),"inconclusive: 6.31 µM [inhibitor, single point]"
23,Cc1ccsc1C(=O)NNC(=O)C1C2C=CC(C2)C1C(=O)O (stereo not drawn),"inconclusive: 18.4 µM [inhibitor, single point]"
24,CC1CCN(S(=O)(=O)c2ccc(NC(=O)C3CCN(C(=O)c4ccco4)CC3)cc2)CC1,"inconclusive: 35.5 µM [inhibitor, single point]"

row,SMILES,Potency
1,COc1cccc(/C=C/C(=O)c2ccc(NS(=O)(=O)c3ccc(C)cc3)cc2)c1,"inconclusive: 29.1 µM [inhibitor, single point]"
2,Cc1ccc2c(c1)c1c3n2CCN(CC(N)=O)C3CCC1 (stereo not drawn),inactive
3,Cc1cccc(C2CC3(CC(C)(C)NC(=S)N3)Oc3cc(O)ccc32)c1 (stereo not drawn),"inconclusive: 7.08 µM [inhibitor, partial curve, poor fit]"
4,CC/C(=N\Nc1ccccc1)c1c(O)n(-c2ccccc2)c(=O)[nH]c1=O,active: 10 µM
5,Oc1ccc(Br)cc1-c1ccnn1-c1ccccc1,inactive
6,Cc1ccc(C(=O)Nc2ccc(F)cc2)cc1S(=O)(=O)N1CCCCCC1,"inconclusive: 35.5 µM [inhibitor, single point]"
7,CCCCOC(=O)c1nc(Cl)c(Cl)c(N)c1Cl,"inconclusive: 25.1 µM [activator, single point]"
8,CC(=O)Nc1ccc(Nc2ncnc3c2cnn3-c2ccccc2)cc1,"inconclusive: 7.3 µM [activator, partial curve, poor fit]"
9,Cc1ccc(CN(Cc2cc3cccc(C)c3[nH]c2=O)C(=S)NCCCN(C)C)cc1,inactive
10,Cc1noc(C)c1CSCC(=O)N(C)CC(=O)Nc1ccc(F)c(F)c1F,"inconclusive: 0.447 µM [activator, partial curve, poor fit]"
11,CCCOc1ccc(-c2nc(C#N)c(NCC3CCCO3)o2)cc1 (stereo not drawn),inactive
12,COc1ccc(-c2cc(C(F)(F)F)n3ncc(C(=O)N4CCc5ccccc5C4)c3n2)cc1,inactive
13,Cc1nnc(SCC(=O)N2CCN(S(=O)(=O)c3ccccc3)CC2)s1,inactive
14,O=C(CSC(=S)N1CCCCC1)N1N=CCC1c1ccccc1 (stereo not drawn),inactive
15,CNc1cc(Cl)nc(SC)n1,inactive
16,C/C(N)=C(/C#N)C(=O)COC(=O)CCSc1ccccc1Cl,inactive
17,Oc1[nH]c2ccc(Br)cc2c1N=NC(=S)Nc1ccc(F)cc1,"inconclusive: 25.1 µM [inhibitor, single point]"
18,CS(=O)(=O)N(Cc1ccccc1)c1ccc(C(=O)NCCSc2ccccn2)cc1,"inconclusive: 29.1 µM [inhibitor, single point]"
19,Cc1ccc(-n2c(C)cc(/C=C3/SC(=O)N(CC(=O)N4CCOCC4)C3=O)c2C)nc1,inactive
20,CCCCP(=O)(c1ccccn1)c1ccccn1,"inconclusive: 16.4 µM [activator, single point]"
21,COc1ccc(/C=N/NC(=O)CN(CCc2ccccc2)S(=O)(=O)c2ccc(NC(C)=O)cc2)cc1OC,"inconclusive: 4.47 µM [inhibitor, full curve]"
22,O=C(NCCCc1nc2ccccc2n1Cc1ccc(F)cc1)C1CCCCC1,inactive
23,O=C(C1CCCCC1)N1C[C@H](O)[C@H](n2cc(C3CC3)nn2)C[C@@H]1c1ccc(Cl)cc1,inactive
24,CCC(=O)N1c2ccccc2CC1C(=O)NCCCN1CCN(c2cc(C)ccc2C)CC1 (stereo not drawn),"inconclusive: 3.16 µM [inhibitor, partial curve, poor fit]"

# Of the compounds above, two have a cyano group.
row,SMILES,Potency
11,CCCOc1ccc(-c2nc(C#N)c(NCC3CCCO3)o2)cc1 (stereo not drawn),inactive
16,C/C(N)=C(/C#N)C(=O)COC(=O)CCSc1ccccc1Cl,inactive
